Assay [1] concerns the target T1, SLC27A5 (endogenous) (human (endogenous in SNU449 and HepG2)) (UniProt Q9Y2P5).
T1 sequence: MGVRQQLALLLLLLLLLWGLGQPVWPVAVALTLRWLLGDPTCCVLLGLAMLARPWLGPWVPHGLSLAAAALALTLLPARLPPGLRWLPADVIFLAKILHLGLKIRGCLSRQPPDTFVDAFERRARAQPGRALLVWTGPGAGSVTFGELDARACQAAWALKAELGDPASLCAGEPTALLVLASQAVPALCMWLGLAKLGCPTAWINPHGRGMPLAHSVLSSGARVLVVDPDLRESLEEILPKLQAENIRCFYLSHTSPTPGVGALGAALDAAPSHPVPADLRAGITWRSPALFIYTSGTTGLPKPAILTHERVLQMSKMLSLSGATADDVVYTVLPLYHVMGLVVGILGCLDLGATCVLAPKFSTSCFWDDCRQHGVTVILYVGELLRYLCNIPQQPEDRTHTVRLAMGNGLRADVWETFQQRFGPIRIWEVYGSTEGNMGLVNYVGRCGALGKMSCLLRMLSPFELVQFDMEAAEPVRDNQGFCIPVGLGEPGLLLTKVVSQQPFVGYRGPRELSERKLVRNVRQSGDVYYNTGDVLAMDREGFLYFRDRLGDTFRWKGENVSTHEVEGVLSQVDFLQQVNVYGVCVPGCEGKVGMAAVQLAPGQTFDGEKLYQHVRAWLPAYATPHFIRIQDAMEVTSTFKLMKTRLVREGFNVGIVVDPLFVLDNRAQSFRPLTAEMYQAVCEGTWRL
Put plainly: co-IP; endogenous proteins, IP with anti-SLC27A5 and anti-PABPC1 in SNU449 cells and HepG2 cells, immunoblot.

Amino acid sequences for entries named in this document (tags omitted). A change or cut given only in a name is not applied to a line headed by its entry.
UniProt P11940: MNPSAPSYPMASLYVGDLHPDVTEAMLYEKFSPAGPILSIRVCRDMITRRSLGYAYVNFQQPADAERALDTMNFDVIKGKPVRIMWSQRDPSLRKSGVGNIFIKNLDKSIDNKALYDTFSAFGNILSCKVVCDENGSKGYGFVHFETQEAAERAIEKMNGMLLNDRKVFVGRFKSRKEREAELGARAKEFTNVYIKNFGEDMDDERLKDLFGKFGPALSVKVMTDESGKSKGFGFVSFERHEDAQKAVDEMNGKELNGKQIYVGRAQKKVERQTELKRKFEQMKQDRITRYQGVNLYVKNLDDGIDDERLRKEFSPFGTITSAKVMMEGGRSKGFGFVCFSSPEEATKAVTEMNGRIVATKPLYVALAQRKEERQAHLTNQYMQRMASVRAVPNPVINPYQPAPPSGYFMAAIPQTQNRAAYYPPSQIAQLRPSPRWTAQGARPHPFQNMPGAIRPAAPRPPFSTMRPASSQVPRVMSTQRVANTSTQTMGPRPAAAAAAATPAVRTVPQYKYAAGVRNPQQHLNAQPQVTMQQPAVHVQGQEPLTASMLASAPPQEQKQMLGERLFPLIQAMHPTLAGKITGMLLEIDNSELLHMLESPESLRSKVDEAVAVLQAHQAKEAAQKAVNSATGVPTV

The next assay has as its target T2, GST-SLC27A5 (UniProt Q9Y2P5).
T2 sequence: T1 sequence
Put plainly: pull-down; purified GST-SLC27A5 and His-PABPC1 co-incubated with glutathione agarose beads at 4 °C for 3 h; wash buffer 137 mM NaCl, 2.7 mM KCl, 10 mM Na2HPO4, 2 mM KH2PO4, 0.5 % Triton X-100; Coomassie staining and immunoblot; both purified.

Assay [2] deals with T3, SLC27A5-Flag (solute carrier family 27 member 5) (UniProt Q9Y2P5).
T3 sequence: T1 sequence
Put plainly: co-IP; cells transfected with plasmids for 48 h, NP-40 lysis buffer, protein A/G magnetic beads, immunoblot; cell line and tags not told (Fig. 1G, H; Fig. S1C; Fig. S3B-D; in Fig. S3C with and without SLC27A5, which enhanced PABPC1-RBBP7). A general note: In western blotting, separated proteins are transferred to a membrane and probed.

Assay [3] has as its target T3, SLC27A5-Flag (solute carrier family 27 member 5). Kind of assay: co-IP; HEK-293 cells transfected with SLC27A5-Flag and PABPC1-HA for 48 h, NP-40 lysis buffer, IP with anti-HA or anti-Flag antibody, protein A/G magnetic beads, immunoblot.
The target in assay [4] is T4, SLC27A5-S296A (enzyme-inactive form of SLC27A5) (UniProt Q9Y2P5).
T4 sequence: T1 sequence with S296A
Kind of assay: co-IP; cells transfected with plasmids for 48 h, NP-40 lysis buffer, protein A/G magnetic beads, immunoblot; cell line and tags not told (Fig. 1G, H; Fig. S1C; Fig. S3B-D; in Fig. S3C with and without SLC27A5, which enhanced PABPC1-RBBP7).

In assay [5] the target is PABPC1-HA (poly(A)-binding protein cytoplasmic 1) (UniProt P11940). Described as above.

Positions count from the first letter of the chain named. No constants are given. Whether binding was seen depends on the method and setting. For some of these results: Binding seen in cells or lysates may run through a third protein. Some binding calls cover weakened binding; strength is not graded here. For some of these results: Where a sequence is shown, tags or fusion partners need not be part of it.

Turning to “PABPC1 (endogenous) (from UniProt P11940 1-636)”, the binding entry in assay [1] is listed as “binds”. In the case of His-PABPC1 (from UniProt P11940 1-636), the binding entry in the assay with GST-SLC27A5 is “binds”. In the case of “PABPC1 deletion mutant ΔN (amino acids 371–636) (from UniProt P11940 371-636) (domain or fragment)”, the binding entry in assay [2] is recorded as “binds”. For “PABPC1-HA (poly(A)-binding protein cytoplasmic 1) (from UniProt P11940 1-636)”, the binding result in assay [3], in assay [2] and in assay [4] was “binds” throughout.

B1: SLC27A5 deletion mutant ΔN (amino acids 78–690) (domain or fragment, UniProt Q9Y2P5 78-690)
chain: ARLPPGLRWLPADVIFLAKILHLGLKIRGCLSRQPPDTFVDAFERRARAQPGRALLVWTGPGAGSVTFGELDARACQAAWALKAELGDPASLCAGEPTALLVLASQAVPALCMWLGLAKLGCPTAWINPHGRGMPLAHSVLSSGARVLVVDPDLRESLEEILPKLQAENIRCFYLSHTSPTPGVGALGAALDAAPSHPVPADLRAGITWRSPALFIYTSGTTGLPKPAILTHERVLQMSKMLSLSGATADDVVYTVLPLYHVMGLVVGILGCLDLGATCVLAPKFSTSCFWDDCRQHGVTVILYVGELLRYLCNIPQQPEDRTHTVRLAMGNGLRADVWETFQQRFGPIRIWEVYGSTEGNMGLVNYVGRCGALGKMSCLLRMLSPFELVQFDMEAAEPVRDNQGFCIPVGLGEPGLLLTKVVSQQPFVGYRGPRELSERKLVRNVRQSGDVYYNTGDVLAMDREGFLYFRDRLGDTFRWKGENVSTHEVEGVLSQVDFLQQVNVYGVCVPGCEGKVGMAAVQLAPGQTFDGEKLYQHVRAWLPAYATPHFIRIQDAMEVTSTFKLMKTRLVREGFNVGIVVDPLFVLDNRAQSFRPLTAEMYQAVCEGTWRL
With B1, the binding result in assay [5] is listed as “binds”.

(Values after PMC12033915.)
